Test results taken from patent publication US20060160773A1, “Combretastatin derivatives with cytotoxic action” (priority 2003, published 2006).
At least one compound was matched to its structure with a doubt left.

Test system: human NCI-H460 lung cancer cells
Assay: Anticancer activity in animal model of human lung carcinoma (NCI-H460 s.c. in nude CD1 mice)
Format: in vivo
Details: administered orally or intravenously
Method: The anticancer activity of ST2495 and ST2496 was assayed in an animal model of human lung carcinoma.
In this model, human NCI-H460 lung cancer cells at a density of 3×10^6 cells/mouse were injected subcutaneously in the right flank of nude CD1 mice. […]
All the animals were weighed during the course of the treatment to adjust the drug administration volume and to record the percentage loss of body weight (% BWL).
Tumour growth was assessed by measuring the shorter diameter (width) and the longer diameter (length) of each tumour twice a week with a Vernier caliper, and the anticancer activity was evaluated in terms of percentage inhibition of tumour growth. The tumour volume was calculated using the following formula: tumour volume (TV) in mm^3=[length (mm)×width (mm)^2]/2. The percentage inhibition (% TVI) was calculated according to the following equation: 100−[(mean tumour volume of the treated group/mean tumour volume of the control group)×100]. A value of P≦0.05 was regarded as statistically significant.

COc1cc(/C=C\c2cc(OP(=O)(O)O)c3ccoc3c2)cc(OC)c1OC [ST2496, Disodium 6[(Z)-2-(3,4,5-trimethoxyphenyl)ethenyl]-1-benzo-furan-4-ol 4-O-phosphate]
inhibition of the tumours as compared to controls (summary in words): significant inhibition of the tumours
